Test results from patent EP0386076B1, “PHOSPHORYLED DERIVATIVES OF CARDIODILATINE/ANF PEPTIDES” (FORSSMANN, Wolf-Georg, Prof. Dr. med., priority 1987, dated 1993).
Part of at least one peptide drawing is inferred or uncertain, most often the ends.

Tested on: Muskelstreifen von Kaninchenaorta
Test: Relaxation of norepinephrine-precontracted rabbit aorta muscle strips in an organ bath
Parameters: species or system Neuseeland-Kaninchen
Conditions: for Muskelrelaxation bei schrittweiser Zugabe: Abbildung 6 / Beispiel 5, stepwise addition of non-phosphorylated, phosphorylated, non-phosphorylated peptide, each 0,3 x 10⁻⁹ M

CC[C@H](C)[C@@H]1NC(=O)[C@H](CCCNC(=N)N)NC(=O)[C@H](CC(=O)O)NC(=O)[C@H](CCSC)NC(=O)[C@H](CCCNC(=N)N)NC(=O)CNC(=O)CNC(=O)[C@H](Cc2ccccc2)NC(=O)[C@@H](NC(=O)[C@H](CO)NC(=O)[C@H](CO)NC(=O)[C@H](CCCNC(=N)N)NC(=O)[C@H](CCCNC(=N)N)NC(=O)[C@H](CC(C)C)NC(=O)[C@@H](N)CO)CSSC[C@@H](C(=O)N[C@@H](CC(N)=O)C(=O)N[C@@H](CO)C(=O)N[C@@H](Cc2ccccc2)C(=O)N[C@@H](CCCNC(=N)N)C(=O)N[C@@H](Cc2ccc(O)cc2)C(=O)O)NC(=O)CNC(=O)[C@H](CC(C)C)NC(=O)CNC(=O)[C@H](CO)NC(=O)[C@H](CCC(N)=O)NC(=O)[C@H](C)NC(=O)CNC1=O [nicht phosphoryliertem CDD-28]
Relaxation der glatten Gefäßmuskulatur (Abbildung 4, Kaninchenaorta, contracted with Norepinephrin 10⁻⁷ M, peptide final concentration 0,3 bis 0,6 x 10⁻⁹ M): typische Relaxationsverhalten
Muskelrelaxation bei schrittweiser Zugabe (listed as nicht phosphoryliertem Alpha-hANaP): zu einem gewissen Grad
Muskelrelaxation bei schrittweiser Zugabe (listed as nicht phosphoryliertes Alpha-hANaP): signifikante relaxierende Wirkung
Muskelrelaxation (Beispiel 5, single addition, final concentration 0,3 x 10⁻⁹ M, precontracted Kaninchenaorta strips): relaxiert der Aorta-Muskelstreifen teilweise
